Values of other authors in article PMC12754617, “Ruthenium-enhanced curcumin derivatives target tumor growth and cancer-related inflammation in head and neck cancer models” (Frontiers in Oncology, 2025).

System: A549 cell line
Design: method as in PMID 32598409
Conditions: A549 cell line ref 33; cited from earlier work

N.N.[Cl][Pt][Cl] [cisplatin]
IC50: 13.8 µM
